Reference: patent US10717090B2, “Depression of copper and iron sulfides in molybdenite flotation circuits” (TESSENDERLO KERLEY, INC., priority 2014, dated 2020)
Some results were stated once for a whole list of compounds, not compound by compound.

Assay: H2S evolution vs. pH in simulated flotation process (headspace analysis)
Assay type: physicochemical
Conditions: pH greater than 10 to 10.5, ambient temperature, 5 mL reagent in 500 ml tap water
Protocol: The H2S evolution due to the decomposition of depressant reagents during storage, handling and application presents the highest associated hazard with regards to health and safety (HSE). Testing of TKI's Alkaline Polysulfide products against the standard (NaHS reagent) was conducted in a simulated flotation process using lab apparatus to determine the amount of H2S evolved at various pH's. The tests were conducted using the following testing protocol; • All tests were ran at ambient temperatures using tap water. Add 500 ml of tap water to […] glass apparatus, check pH and temp, start and maintain stirring throughout test. • Add Ca(OH)2 to raise pH to approximately 10.5 • Add 5 mL of reagent. • Allow to stabilize for 2 min, with cracking of stopper to equilibrate at 1 min. • Check pH, temperature and H2S in VP using analyzer. • Add H2SO4 to decrease pH to ˜9. • Allow to stabilize for 2 min, with cracking of stopper to equilibrate at 1 min. • Check pH, temperature and H2S in VP using analyzer. • Repeat last three Steps for pH 9, 8 and 7 if applicable.
Note the H2S in the vapor phase above the polysulfide samples increased to 1500 ppm at pH near 8.2, while this 1500 ppm level was reached by NaHS samples at pH 9.1 to 9.3. […] This would translate into a less hazardous environment in applications where the process is run ran at lower pH's (˜9) utilizing for example CO2 as a flotation medium or modifying agent.
Values above 1500 ppm are lower limits, as the H2S meter maximum reading was 2000 PPM. […] Therefore, this invention may show significant health and safety benefits even at pH near 8.

| Molecule | H2S in vapor phase |
| --- | --- |
| S [NaHS, Sodium hydrosulfide, reference compound] | less than 200 ppm |
| Sodium Polysulfide [NaPS] | less than 200 ppm |
| Potassium Polysulfide [KPS] | less than 200 ppm |
| Calcium Polysulfide [CaPS] | less than 200 ppm |
